# Experimental data published in the supplement of paper PMC8728848.
# This is one part of the list.
# Assays:
# Experiment in all cases: glycan array binding signal (z-score within array); higher = stronger binding
# Details in all cases: glycan notation: IUPAC condensed, linker removed
# [1] = target: Gal(a1-3)Gal(b1-4)GlcNAc(b1-2)Man
# Outline: (§1)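 Glycan array binding is given as a within-array Z-score, which can be read as non-binding when negative. The arrays, 3228 of them, came from the Consortium for Functional Glycomics database and were retained only where the protein sequence was available. Z-scores were averaged across arrays of the same protein sequence at different concentrations or buffers and across linkers.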
# [2] = target: Gal(a1-3)Gal(b1-4)GlcNAc(b1-2)Man(a1-3)[Gal(a1-3)Gal(b1-4)GlcNAc(b1-2)Man(a1-6)]Man(b1-4)GlcNAc(b1-4)GlcNAc
# Outline: as §1
# [3] = target: Gal(a1-3)Gal(b1-4)GlcNAc(b1-3)GalNAc
# Outline: as §1
# [4] = target: Gal(a1-3)Gal(b1-4)GlcNAc(b1-6)GalNAc
# Outline: as §1
# [5] = target: Gal(a1-3)Gal(b1-4)[Fuc(a1-3)]GlcNAc
# Outline: as §1
# [6] = target: Gal(a1-3)Gal(b1-4)[Fuc(a1-3)]GlcNAc(b1-2)Man(a1-3)[Gal(a1-3)Gal(b1-4)[Fuc(a1-3)]GlcNAc(b1-2)Man(a1-6)]Man(b1-4)GlcNAc(b1-4)GlcNAc
# Outline: as §1
# Gal(a1-3)GalNAc = target: Gal(a1-3)GalNAc
# Outline: as §1
# [7] = target: Gal(a1-3)[Gal(a1-4)]Gal(b1-4)GlcNAc
# Outline: as §1
# [8] = target: Gal(a1-4)Gal(b1-3)GlcNAc(b1-2)Man(a1-3)[Gal(a1-4)Gal(b1-3)GlcNAc(b1-2)Man(a1-6)]Man(b1-4)GlcNAc(b1-4)GlcNAc
# Outline: as §1
# Gal(a1-4)Gal(b1-4)Glc = target: Gal(a1-4)Gal(b1-4)Glc
# Outline: as §1
# Gal(a1-4)Gal(b1-4)GlcNAc = target: Gal(a1-4)Gal(b1-4)GlcNAc
# Outline: as §1
# [9] = target: Gal(a1-4)Gal(b1-4)GlcNAc(b1-2)Man(a1-3)[Gal(a1-4)Gal(b1-4)GlcNAc(b1-2)Man(a1-6)]Man(b1-4)GlcNAc(b1-4)GlcNAc
# Outline: as §1
# [10] = target: Gal(a1-4)Gal(b1-4)GlcNAc(b1-3)Gal(b1-4)Glc
# Outline: as §1
# Gal(a1-4)GlcNAc = target: Gal(a1-4)GlcNAc
# Outline: as §1
# Gal(a1-6)Glc = target: Gal(a1-6)Glc
# Outline: as §1
# Gal(b1-2)Gal = target: Gal(b1-2)Gal
# Outline: as §1
# Gal(b1-3)Gal = target: Gal(b1-3)Gal
# Outline: as §1
# Gal(b1-3)Gal(b1-4)GlcNAc = target: Gal(b1-3)Gal(b1-4)GlcNAc
# Outline: as §1
# Gal(b1-3)GalNAc = target: Gal(b1-3)GalNAc
# Outline: as §1
# [11] = target: Gal(b1-3)GalNAc(a1-3)[Fuc(a1-2)]Gal(b1-4)Glc
# Outline: as §1
# [12] = target: Gal(b1-3)GalNAc(a1-3)[Fuc(a1-2)]Gal(b1-4)GlcNAc
# Outline: as §1
# Gal(b1-3)GalNAc(b1-3)Gal = target: Gal(b1-3)GalNAc(b1-3)Gal
# Outline: as §1
# [13] = target: Gal(b1-3)GalNAc(b1-3)Gal(a1-4)Gal(b1-4)Glc
# Outline: as §1
# [14] = target: Gal(b1-3)GalNAc(b1-4)Gal(b1-4)Glc
# Outline: as §1
# [15] = target: Gal(b1-3)GalNAc(b1-4)[Neu5Ac(a2-3)]Gal(b1-4)Glc
# Outline: as §1
# Gal(b1-3)GlcNAc = target: Gal(b1-3)GlcNAc
# Outline: as §1
# [16] = target: Gal(b1-3)GlcNAc(a1-3)Gal(b1-4)GlcNAc
# Outline: as §1
# [17] = target: Gal(b1-3)GlcNAc(a1-6)Gal(b1-4)GlcNAc
# Outline: as §1
# Gal(b1-3)GlcNAc(b1-2)Man = target: Gal(b1-3)GlcNAc(b1-2)Man
# Outline: as §1
# [18] = target: Gal(b1-3)GlcNAc(b1-2)Man(a1-3)[Gal(b1-3)GlcNAc(b1-2)Man(a1-6)]Man(b1-4)GlcNAc(b1-4)GlcNAc
# Outline: as §1
# [19] = target: Gal(b1-3)GlcNAc(b1-2)Man(a1-3)[Gal(b1-3)GlcNAc(b1-2)Man(a1-6)]Man(b1-4)GlcNAc(b1-4)[Fuc(a1-6)]GlcNAc
# Outline: as §1
# [20] = target: Gal(b1-3)GlcNAc(b1-2)Man(a1-3)[GlcNAc(b1-4)][Gal(b1-3)GlcNAc(b1-2)Man(a1-6)]Man(b1-4)GlcNAc(b1-4)GlcNAc
# Outline: as §1
# [21] = target: Gal(b1-3)GlcNAc(b1-2)[Gal(b1-3)GlcNAc(b1-6)]Man(a1-6)[Gal(b1-3)GlcNAc(b1-2)Man(a1-3)]Man(b1-4)GlcNAc(b1-4)GlcNAc
# Outline: as §1
# [22] = target: Gal(b1-3)GlcNAc(b1-3)Gal(b1-3)GlcNAc
# Outline: as §1
# [23] = target: Gal(b1-3)GlcNAc(b1-3)Gal(b1-4)Glc
# Outline: as §1
# [24] = target: Gal(b1-3)GlcNAc(b1-3)Gal(b1-4)GlcNAc
# Outline: as §1
# [25] = target: Gal(b1-3)GlcNAc(b1-3)Gal(b1-4)GlcNAc(b1-2)Man(a1-3)[Gal(b1-3)GlcNAc(b1-3)Gal(b1-4)GlcNAc(b1-2)Man(a1-6)]Man(b1-4)GlcNAc(b1-4)GlcNAc
# Outline: as §1
binder,measurement,setting,value
RobpsCRA (Robinia pseudoacacia) (protein) IKGGYWYSGSGLAVSDINPSHFTHLFCAFADLDPNTNKLTISSSNAAAFSTFTQTVRAKNPSVKTLLSIGGGGGRALAAVFANMASQASRRKSFIDSSIQLARRNNFHGLDLDWEYPSSDIDKTNFASLIREWRAAVATESSTSGTPALLLSAAVGGSDQITPLKYYPGEAIANNLDWVNVMTYDLYTSDSYPTLTQPPAPLFYPRGIFSADEGITKWIQSGVPESKLALGLPFYGFKWRLSDPNNHGLFAPATQGLGAVKYKDIVNTGGQVEFDSTYVTNYCFKGTDWYGYDDTQSISAKVAYAKQRGLFGYFAWHIEQDSNWALS,glycan array binding signal (z-score),[1],-0.591
same,glycan array binding signal (z-score),[2],-0.144
same,glycan array binding signal (z-score),[3],-0.684
same,glycan array binding signal (z-score),[4],-0.768
same,glycan array binding signal (z-score),[5],-0.553
same,glycan array binding signal (z-score),[6],-0.037
same,glycan array binding signal (z-score),Gal(a1-3)GalNAc,0.48
same,glycan array binding signal (z-score),[7],1.85
same,glycan array binding signal (z-score),[8],0.762
same,glycan array binding signal (z-score),Gal(a1-4)Gal(b1-4)Glc,-0.252
same,glycan array binding signal (z-score),Gal(a1-4)Gal(b1-4)GlcNAc,0.31
same,glycan array binding signal (z-score),[9],0.418
same,glycan array binding signal (z-score),[10],-0.34
same,glycan array binding signal (z-score),Gal(a1-4)GlcNAc,-0.505
same,glycan array binding signal (z-score),Gal(a1-6)Glc,-0.118
same,glycan array binding signal (z-score),Gal(b1-2)Gal,-0.839
same,glycan array binding signal (z-score),Gal(b1-3)Gal,-0.71
same,glycan array binding signal (z-score),Gal(b1-3)Gal(b1-4)GlcNAc,-0.384
same,glycan array binding signal (z-score),Gal(b1-3)GalNAc,-0.508
same,glycan array binding signal (z-score),[11],-0.539
same,glycan array binding signal (z-score),[12],0.085
same,glycan array binding signal (z-score),Gal(b1-3)GalNAc(b1-3)Gal,-0.091
same,glycan array binding signal (z-score),[13],0.121
same,glycan array binding signal (z-score),[14],-0.501
same,glycan array binding signal (z-score),[15],-0.212
same,glycan array binding signal (z-score),Gal(b1-3)GlcNAc,-0.11
same,glycan array binding signal (z-score),[16],-0.255
same,glycan array binding signal (z-score),[17],-0.067
same,glycan array binding signal (z-score),Gal(b1-3)GlcNAc(b1-2)Man,-0.002
same,glycan array binding signal (z-score),[18],0.411
same,glycan array binding signal (z-score),[19],-0.414
same,glycan array binding signal (z-score),[20],-0.59
same,glycan array binding signal (z-score),[21],-0.739
same,glycan array binding signal (z-score),[22],-0.36
same,glycan array binding signal (z-score),[23],-0.356
same,glycan array binding signal (z-score),[24],-0.629
same,glycan array binding signal (z-score),[25],-0.122

# Some of the entries so far, tab-delimited.
binder	measurement	setting	value
RobpsCRA (Robinia pseudoacacia) (protein) IKGGYWYSGSGLAVSDINPSHFTHLFCAFADLDPNTNKLTISSSNAAAFSTFTQTVRAKNPSVKTLLSIGGGGGRALAAVFANMASQASRRKSFIDSSIQLARRNNFHGLDLDWEYPSSDIDKTNFASLIREWRAAVATESSTSGTPALLLSAAVGGSDQITPLKYYPGEAIANNLDWVNVMTYDLYTSDSYPTLTQPPAPLFYPRGIFSADEGITKWIQSGVPESKLALGLPFYGFKWRLSDPNNHGLFAPATQGLGAVKYKDIVNTGGQVEFDSTYVTNYCFKGTDWYGYDDTQSISAKVAYAKQRGLFGYFAWHIEQDSNWALS	glycan array binding signal (z-score)	Gal(a1-6)Glc	-0.118
same	glycan array binding signal (z-score)	Gal(b1-2)Gal	-0.839
same	glycan array binding signal (z-score)	Gal(b1-3)Gal	-0.71
